{
  "source": "the supplement of paper PMC8728848",
  "binders": {"B1": {"name": "BIp1-His (Cryptococcus neoformans) (protein)", "chain": "MFTKIFVALFAATAVLSAPVESAEKRITHTGRATFYSPSVGIGACGWQNTDEELVVALNAPQYALNADHNCGQSVRITNEQNGNQEIAKVVDLCPGCNDGDLDMSPALFGALNNNDFDQGVFPISWNFLPRDDTSSSN"}},
  "experiment_in_all_cases": "glycan array binding signal (z-score within array); higher = stronger binding",
  "details_in_all_cases": "glycan notation: IUPAC condensed, linker removed",
  "key": {"[1]": {"target": "Fuc(a1-3)[Gal3S(b1-4)]GlcNAc", "procedure,_shortened": "(§1)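 Columns mapping to the same glycan were averaged after glycan names were converted to IUPAC-condensed notation. The data come from 3228 arrays in the Consortium for Functional Glycomics database, limited to those with an available protein sequence. Binding is reported as a within-array Z-score averaged across arrays of one protein sequence and across linkers.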"}, "[2]": {"target": "Fuc(a1-3)[Gal3S(b1-4)]GlcNAc6S", "procedure,_shortened": "as §1"}, "[3]": {"target": "Fuc(a1-3)[GalNAc(b1-4)]GlcNAc", "procedure,_shortened": "as §1"}, "[4]": {"target": "Fuc(a1-3)[GalNAc(b1-4)]GlcNAc6S", "procedure,_shortened": "as §1"}, "Fuc(a1-4)GlcNAc": {"target": "Fuc(a1-4)GlcNAc", "procedure,_shortened": "as §1"}, "Fuc(b1-3)GlcNAc": {"target": "Fuc(b1-3)GlcNAc", "procedure,_shortened": "as §1"}, "Gal(a1-2)Gal": {"target": "Gal(a1-2)Gal", "procedure,_shortened": "as §1"}, "Gal(a1-3)Gal": {"target": "Gal(a1-3)Gal", "procedure,_shortened": "as §1"}, "Gal(a1-3)Gal(b1-3)GlcNAc": {"target": "Gal(a1-3)Gal(b1-3)GlcNAc", "procedure,_shortened": "as §1"}, "[5]": {"target": "Gal(a1-3)Gal(b1-3)GlcNAc(b1-2)Man", "procedure,_shortened": "as §1"}, "[6]": {"target": "Gal(a1-3)Gal(b1-3)GlcNAc(b1-2)Man(a1-3)[Gal(a1-3)Gal(b1-3)GlcNAc(b1-2)Man(a1-6)]Man(b1-4)GlcNAc(b1-4)GlcNAc", "procedure,_shortened": "as §1"}, "[7]": {"target": "Gal(a1-3)Gal(b1-3)GlcNAc(b1-3)GalNAc", "procedure,_shortened": "as §1"}, "[8]": {"target": "Gal(a1-3)Gal(b1-3)GlcNAc(b1-6)GalNAc", "procedure,_shortened": "as §1"}, "[9]": {"target": "Gal(a1-3)Gal(b1-3)[Fuc(a1-4)]GlcNAc(b1-2)Man(a1-3)[Gal(a1-3)Gal(b1-3)[Fuc(a1-4)]GlcNAc(b1-2)Man(a1-6)]Man(b1-4)GlcNAc(b1-4)GlcNAc", "procedure,_shortened": "as §1"}, "Gal(a1-3)Gal(b1-4)Glc": {"target": "Gal(a1-3)Gal(b1-4)Glc", "procedure,_shortened": "as §1"}, "Gal(a1-3)Gal(b1-4)GlcNAc": {"target": "Gal(a1-3)Gal(b1-4)GlcNAc", "procedure,_shortened": "as §1"}, "[10]": {"target": "Gal(a1-3)Gal(b1-4)GlcNAc(b1-2)Man", "procedure,_shortened": "as §1"}, "[11]": {"target": "Gal(a1-3)Gal(b1-4)GlcNAc(b1-2)Man(a1-3)[Gal(a1-3)Gal(b1-4)GlcNAc(b1-2)Man(a1-6)]Man(b1-4)GlcNAc(b1-4)GlcNAc", "procedure,_shortened": "as §1"}, "[12]": {"target": "Gal(a1-3)Gal(b1-4)GlcNAc(b1-3)GalNAc", "procedure,_shortened": "as §1"}, "[13]": {"target": "Gal(a1-3)Gal(b1-4)GlcNAc(b1-6)GalNAc", "procedure,_shortened": "as §1"}, "[14]": {"target": "Gal(a1-3)Gal(b1-4)[Fuc(a1-3)]GlcNAc", "procedure,_shortened": "as §1"}, "[15]": {"target": "Gal(a1-3)Gal(b1-4)[Fuc(a1-3)]GlcNAc(b1-2)Man(a1-3)[Gal(a1-3)Gal(b1-4)[Fuc(a1-3)]GlcNAc(b1-2)Man(a1-6)]Man(b1-4)GlcNAc(b1-4)GlcNAc", "procedure,_shortened": "as §1"}, "Gal(a1-3)GalNAc": {"target": "Gal(a1-3)GalNAc", "procedure,_shortened": "as §1"}, "[16]": {"target": "Gal(a1-3)[Gal(a1-4)]Gal(b1-4)GlcNAc", "procedure,_shortened": "as §1"}, "[17]": {"target": "Gal(a1-4)Gal(b1-3)GlcNAc(b1-2)Man(a1-3)[Gal(a1-4)Gal(b1-3)GlcNAc(b1-2)Man(a1-6)]Man(b1-4)GlcNAc(b1-4)GlcNAc", "procedure,_shortened": "as §1"}, "Gal(a1-4)Gal(b1-4)Glc": {"target": "Gal(a1-4)Gal(b1-4)Glc", "procedure,_shortened": "as §1"}, "Gal(a1-4)Gal(b1-4)GlcNAc": {"target": "Gal(a1-4)Gal(b1-4)GlcNAc", "procedure,_shortened": "as §1"}, "[18]": {"target": "Gal(a1-4)Gal(b1-4)GlcNAc(b1-2)Man(a1-3)[Gal(a1-4)Gal(b1-4)GlcNAc(b1-2)Man(a1-6)]Man(b1-4)GlcNAc(b1-4)GlcNAc", "procedure,_shortened": "as §1"}, "[19]": {"target": "Gal(a1-4)Gal(b1-4)GlcNAc(b1-3)Gal(b1-4)Glc", "procedure,_shortened": "as §1"}, "Gal(a1-4)GlcNAc": {"target": "Gal(a1-4)GlcNAc", "procedure,_shortened": "as §1"}, "Gal(a1-6)Glc": {"target": "Gal(a1-6)Glc", "procedure,_shortened": "as §1"}, "Gal(b1-2)Gal": {"target": "Gal(b1-2)Gal", "procedure,_shortened": "as §1"}, "Gal(b1-3)Gal": {"target": "Gal(b1-3)Gal", "procedure,_shortened": "as §1"}, "Gal(b1-3)Gal(b1-4)GlcNAc": {"target": "Gal(b1-3)Gal(b1-4)GlcNAc", "procedure,_shortened": "as §1"}, "Gal(b1-3)GalNAc": {"target": "Gal(b1-3)GalNAc", "procedure,_shortened": "as §1"}, "[20]": {"target": "Gal(b1-3)GalNAc(a1-3)[Fuc(a1-2)]Gal(b1-4)Glc", "procedure,_shortened": "as §1"}, "[21]": {"target": "Gal(b1-3)GalNAc(a1-3)[Fuc(a1-2)]Gal(b1-4)GlcNAc", "procedure,_shortened": "as §1"}, "Gal(b1-3)GalNAc(b1-3)Gal": {"target": "Gal(b1-3)GalNAc(b1-3)Gal", "procedure,_shortened": "as §1"}, "[22]": {"target": "Gal(b1-3)GalNAc(b1-3)Gal(a1-4)Gal(b1-4)Glc", "procedure,_shortened": "as §1"}, "[23]": {"target": "Gal(b1-3)GalNAc(b1-4)Gal(b1-4)Glc", "procedure,_shortened": "as §1"}, "[24]": {"target": "Gal(b1-3)GalNAc(b1-4)[Neu5Ac(a2-3)]Gal(b1-4)Glc", "procedure,_shortened": "as §1"}, "Gal(b1-3)GlcNAc": {"target": "Gal(b1-3)GlcNAc", "procedure,_shortened": "as §1"}, "[25]": {"target": "Gal(b1-3)GlcNAc(a1-3)Gal(b1-4)GlcNAc", "procedure,_shortened": "as §1"}, "[26]": {"target": "Gal(b1-3)GlcNAc(a1-6)Gal(b1-4)GlcNAc", "procedure,_shortened": "as §1"}, "Gal(b1-3)GlcNAc(b1-2)Man": {"target": "Gal(b1-3)GlcNAc(b1-2)Man", "procedure,_shortened": "as §1"}},
  "note": "Some of the results follow.",
  "data": [
    {"binder": "B1", "values": [
      {"measurement": "glycan array binding signal (z-score)", "setting": "[1]", "result": -0.621},
      {"measurement": "glycan array binding signal (z-score)", "setting": "[2]", "result": -0.121},
      {"measurement": "glycan array binding signal (z-score)", "setting": "[3]", "result": 0.029},
      {"measurement": "glycan array binding signal (z-score)", "setting": "[4]", "result": -0.56},
      {"measurement": "glycan array binding signal (z-score)", "setting": "Fuc(a1-4)GlcNAc", "result": -0.655},
      {"measurement": "glycan array binding signal (z-score)", "setting": "Fuc(b1-3)GlcNAc", "result": -0.55},
      {"measurement": "glycan array binding signal (z-score)", "setting": "Gal(a1-2)Gal", "result": -1.13},
      {"measurement": "glycan array binding signal (z-score)", "setting": "Gal(a1-3)Gal", "result": 0.312},
      {"measurement": "glycan array binding signal (z-score)", "setting": "Gal(a1-3)Gal(b1-3)GlcNAc", "result": -0.478},
      {"measurement": "glycan array binding signal (z-score)", "setting": "[5]", "result": -0.74},
      {"measurement": "glycan array binding signal (z-score)", "setting": "[6]", "result": 0.961},
      {"measurement": "glycan array binding signal (z-score)", "setting": "[7]", "result": -0.137},
      {"measurement": "glycan array binding signal (z-score)", "setting": "[8]", "result": -0.47},
      {"measurement": "glycan array binding signal (z-score)", "setting": "[9]", "result": 1.5},
      {"measurement": "glycan array binding signal (z-score)", "setting": "Gal(a1-3)Gal(b1-4)Glc", "result": -0.171},
      {"measurement": "glycan array binding signal (z-score)", "setting": "Gal(a1-3)Gal(b1-4)GlcNAc", "result": 0.102},
      {"measurement": "glycan array binding signal (z-score)", "setting": "[10]", "result": -0.651},
      {"measurement": "glycan array binding signal (z-score)", "setting": "[11]", "result": -0.192},
      {"measurement": "glycan array binding signal (z-score)", "setting": "[12]", "result": 0.409},
      {"measurement": "glycan array binding signal (z-score)", "setting": "[13]", "result": -0.681},
      {"measurement": "glycan array binding signal (z-score)", "setting": "[14]", "result": -0.303},
      {"measurement": "glycan array binding signal (z-score)", "setting": "[15]", "result": -0.335},
      {"measurement": "glycan array binding signal (z-score)", "setting": "Gal(a1-3)GalNAc", "result": -0.689},
      {"measurement": "glycan array binding signal (z-score)", "setting": "[16]", "result": 0.032},
      {"measurement": "glycan array binding signal (z-score)", "setting": "[17]", "result": 1.64},
      {"measurement": "glycan array binding signal (z-score)", "setting": "Gal(a1-4)Gal(b1-4)Glc", "result": 0.094},
      {"measurement": "glycan array binding signal (z-score)", "setting": "Gal(a1-4)Gal(b1-4)GlcNAc", "result": 0.55},
      {"measurement": "glycan array binding signal (z-score)", "setting": "[18]", "result": 1.68},
      {"measurement": "glycan array binding signal (z-score)", "setting": "[19]", "result": -0.471},
      {"measurement": "glycan array binding signal (z-score)", "setting": "Gal(a1-4)GlcNAc", "result": -1.9},
      {"measurement": "glycan array binding signal (z-score)", "setting": "Gal(a1-6)Glc", "result": -0.512},
      {"measurement": "glycan array binding signal (z-score)", "setting": "Gal(b1-2)Gal", "result": -0.692},
      {"measurement": "glycan array binding signal (z-score)", "setting": "Gal(b1-3)Gal", "result": 0.203},
      {"measurement": "glycan array binding signal (z-score)", "setting": "Gal(b1-3)Gal(b1-4)GlcNAc", "result": 0.294},
      {"measurement": "glycan array binding signal (z-score)", "setting": "Gal(b1-3)GalNAc", "result": -0.183},
      {"measurement": "glycan array binding signal (z-score)", "setting": "[20]", "result": 0.096},
      {"measurement": "glycan array binding signal (z-score)", "setting": "[21]", "result": -0.522},
      {"measurement": "glycan array binding signal (z-score)", "setting": "Gal(b1-3)GalNAc(b1-3)Gal", "result": -1.47},
      {"measurement": "glycan array binding signal (z-score)", "setting": "[22]", "result": 0.446},
      {"measurement": "glycan array binding signal (z-score)", "setting": "[23]", "result": 0.565},
      {"measurement": "glycan array binding signal (z-score)", "setting": "[24]", "result": 0.352},
      {"measurement": "glycan array binding signal (z-score)", "setting": "Gal(b1-3)GlcNAc", "result": -0.406},
      {"measurement": "glycan array binding signal (z-score)", "setting": "[25]", "result": -0.685},
      {"measurement": "glycan array binding signal (z-score)", "setting": "[26]", "result": -0.281},
      {"measurement": "glycan array binding signal (z-score)", "setting": "Gal(b1-3)GlcNAc(b1-2)Man", "result": -0.107}
    ]}
  ]
}
